## Cleaved PARP after 72 h of treatment

Source: doi:10.1371/journal.pone.0140310, primary screening data, rounded.

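The test systems are human melanoma cell lines, treated with two drugs together for 72 h and then stained and imaged. Values are the share of nuclei positive for cleaved PARP as a percentage of the same share in the DMSO control: 100 is the control level, higher means more apoptosis. Concentrations were fixed for each drug; these are the higher of two levels. These are primary screening values without error estimates. The marker varies much from line to line, for technical or biological reasons.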
Only some of the drugs and lines screened are listed, without regard to their results.
A dash means that no value is listed here.

Drug key:
FH535 (5 µM): Cc1cc([N+](=O)[O-])ccc1NS(=O)(=O)c1cc(Cl)ccc1Cl
decitabine (0.5 µM): Nc1ncn([C@H]2C[C@H](O)[C@@H](CO)O2)c(=O)n1
lapatinib (4 µM): CS(=O)(=O)CCNCc1ccc(-c2ccc3ncnc(Nc4ccc(OCc5cccc(F)c5)c(Cl)c4)c3c2)o1
tamatinib (2 µM): COc1cc(Nc2ncc(F)c(Nc3ccc4c(n3)NC(=O)C(C)(C)O4)n2)cc(OC)c1OC
GW9662 (10 µM): O=C(Nc1ccccc1)c1cc([N+](=O)[O-])ccc1Cl
dasatinib (0.02 µM): Cc1nc(Nc2ncc(C(=O)Nc3c(C)cccc3Cl)s2)cc(N2CCN(CCO)CC2)n1
vatalanib (10 µM): Clc1ccc(Nc2nnc(Cc3ccncc3)c3ccccc23)cc1
AS-252424 (5 µM): O=C1NC(=O)/C(=C/c2ccc(-c3ccc(F)cc3O)o2)S1

| Drugs | A101D | RPMI-7951 | COLO 829 | WM1716 | MEL-HO | IST-MEL1 | WM1745 |
|---|---|---|---|---|---|---|---|
| dasatinib + decitabine | 304 | 495 | 116 | 193 | 158 | 105 | 229 |
| AS-252424 + FH535 | 90.7 | 70.6 | 179 | 73.2 | 98.2 | 93.3 | 134 |
| lapatinib + GW9662 | 499 | 53.3 | 275 | 52.7 | 143 | 313 | - |
| dasatinib + lapatinib | 58.2 | 751 | 184 | 146 | 106 | 144 | 285 |
| lapatinib + AS-252424 | 77.7 | 78.3 | 126 | 173 | 209 | 147 | - |
| decitabine + GW9662 | 75.2 | 201 | 135 | 257 | 50.8 | 162 | - |
| GW9662 + FH535 | 46.9 | 91.5 | 147 | 97.7 | 59.2 | 220 | 139 |
| decitabine + lapatinib | 279 | 382 | 229 | 108 | 60.4 | 107 | 115 |
| FH535 + tamatinib | 193 | 332 | 194 | 47.2 | 56.0 | 276 | 297 |
| GW9662 + AS-252424 | 104 | 78.4 | 227 | 43.3 | 117 | 81.2 | 159 |
| GW9662 + dasatinib | 188 | 541 | 284 | 222 | 169 | 164 | 277 |
| FH535 + vatalanib | 416 | 103 | 88.1 | 125 | 131 | 114 | - |
| AS-252424 + tamatinib | 407 | 194 | 78.8 | 234 | 74.5 | 166 | 321 |
| decitabine + vatalanib | 309 | 131 | 180 | 313 | 274 | 300 | 858 |
| tamatinib + lapatinib | 766 | 1790 | 85.3 | 205 | 68.7 | 185 | 242 |
| vatalanib + dasatinib | 456 | 735 | 174 | 277 | 102 | 217 | 369 |
| tamatinib + GW9662 | 97.0 | 150 | 51.4 | 76.1 | 35.0 | 116 | 973 |
| dasatinib + FH535 | 215 | 131 | 122 | 240 | 52.4 | 90.1 | 231 |
| dasatinib + AS-252424 | 256 | 254 | 113 | 640 | 152 | 79.0 | 216 |
| vatalanib + tamatinib | 1470 | 328 | 52.9 | 171 | 156 | 71.5 | 261 |
| decitabine + FH535 | 260 | 181 | 91.8 | 61.9 | 163 | 341 | - |
| vatalanib + GW9662 | 333 | 74.1 | 173 | 113 | 138 | 121 | - |

For reference, 2 entries once more:

| Drugs | A101D | RPMI-7951 | COLO 829 | WM1716 | MEL-HO | IST-MEL1 | WM1745 |
|---|---|---|---|---|---|---|---|
| GW9662 + FH535 | 46.9 | 91.5 | 147 | 97.7 | 59.2 | 220 | 139 |
| tamatinib + GW9662 | 97.0 | 150 | 51.4 | 76.1 | 35.0 | 116 | 973 |